Reference: paper PMC8591604 (Journal of Medicinal Chemistry, 2021)

Assay: general procedure: Fmoc solid-phase peptide synthesis; Rink amide MBHA resin (0.65 mmol/g, 100–200 mesh)
Conditions: whole synthesis, RP-HPLC, Phenomenex Kinetex XB-C18 column, water/acetonitrile with 0.05% TFA

Substance | final HPLC purity [%]
CF-GLN- Y -IDLDL | 99
CF-GLN-F2Pmp-IDLDW | 97
CF-GLN-pY -IDLDL | 93
CF-GLN-pY -IDLDW | 96
CF-GLN-pY -IDLEW | 97
GLN- F2Pmp-IDLDW | 97
GLN-pY -IDLDL | 95
LN-pY -IDLDF | 95
LN-pY -IDLDL | 92
LN-pY -IDLDW | 95
LN-pY -IDLEW | 98
N-pY -IDLDL | 92
